These are yes or no findings as the source states them, for the method shown. For some assays here: Binding seen in cells or lysates may run through a third protein. Some binding calls cover weakened binding; strength is not graded here.

By UniProt entry, the sequences of proteins in these tests, tags left out. Residues count along the entry.
UniProt P25445, residues 26-173: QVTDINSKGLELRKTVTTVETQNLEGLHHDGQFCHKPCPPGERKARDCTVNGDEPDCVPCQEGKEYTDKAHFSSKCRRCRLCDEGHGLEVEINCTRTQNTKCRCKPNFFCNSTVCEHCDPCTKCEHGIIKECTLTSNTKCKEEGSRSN
UniProt P48023, residues 127-281: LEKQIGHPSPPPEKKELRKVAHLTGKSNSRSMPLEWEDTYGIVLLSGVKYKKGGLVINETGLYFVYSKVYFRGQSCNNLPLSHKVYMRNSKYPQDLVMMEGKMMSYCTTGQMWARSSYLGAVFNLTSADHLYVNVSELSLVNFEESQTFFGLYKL

The target in assay [1] is CD80-pFasL (human). The assay is described as follows: co-immunoprecipitation of sFasL with CD80-pFasL by anti-CD80 after co-transfection, anti-FasL immunoblot.
The target in assay [2] is polymeric Flag-tagged soluble FasL (pfFasL) (human). The assay is described as follows: co-immunoprecipitation with anti-Flag antibody, anti-FasL immunoblot. For orientation: In western blotting, separated proteins are transferred to a membrane and probed.
For assay [3] the target is unchanged. The assay is described as follows: co-immunoprecipitation of untagged sFasL with Flag-tagged pfFasL by anti-Flag, anti-FasL immunoblot and densitometry.
The target of assay [4] is CD80-pFasL (human). The assay is described as follows: co-immunoprecipitation with anti-CD80 antibody, anti-FasL immunoblot.
Assay [5] addresses Recombinant Fas-Fc (R&Dsystems) (UniProt P25445). Put plainly: SPR (BIAcore 3000), Fas-Fc immobilised on the chip, analyte at 44 nM (highest concentration tested) [2) C].

Consider “soluble FasL (sFasL) (from UniProt P48023 108-281) (ligand)”, for which the binding result (with CD80-pFasL (human) [1]; in assay [2]; in assay [3]; with CD80-pFasL (human) [4]) was “binds” each time.
For the substance “cleaved FasL (cFasL) (from UniProt P48023 127-281) (ligand)”, in assay [5], the binding entry is “binds”.

For the origin of these results see patent US20150044237A1 (CENTRE NATIONAL DE LA RECHERCHE SCIENTIFIQUE, published 2015).
